From patent US11229657B2, “Targeting hypoxic cancer stem cells (CSCs) with doxycycline: implications for improving anti-angiogenic therapy” (LUNELLA BIOTECH, INC., priority 2017, dated 2022) come the findings set out here.

The experiment concerns CSC propagation. The experiment in a line: IC-50s of metabolic agents for inhibiting CSC propagation (Table 3). The class given is cell-based. The settings on record: Table 3, values given with nM. The protocol:
Glycolysis is required to provide additional TCA cycle intermediates for the mitochondrial processing of Acetyl-CoA. […] Briefly, 2-deoxy-D-glucose (2-DG) or ascorbic acid were dissolved in culture medium. […] Bonuccelli et al. Oncotarget, 8: 20667-20678 (2017). […] 15, 2017, and Patent Cooperation Treaty (PCT) Patent Application PCT/US2018/022403, filed Mar. 14, 2018, the entireties of which are incorporated herein by reference; mitoketoscins, such as those disclosed in U.S. Provisional Patent Application No. 62/524,829, filed Jun. 26, 2017, the entirety of which is incorporated herein by reference; mitoflavoscins, such as those disclosed in U.S. Provisional Patent Application No. 62/576,287, filed Oct. 24, 2017, the entirety of which is incorporated herein by reference; TPP-compounds (e.g., 2-butene-1,4-bis-TPP), such as those disclosed in U.S. Provisional Patent Application No. 62/590,432, filed Nov. 24, 2017, the entirety of which is incorporated herein by reference; mDIVI1, such as those disclosed in U.S. Provisional Patent Application No. 62/608,065, filed Dec. […]

Turning to `Cc1cc(/C=C/c2ccc3cc(N(C)C)ccc3[n+]2C)c(C)n1-c1ccccc1` [Pyrvinium pamoate], the 50% inhibitory concentration (IC50) amounted to 100 nM. In other words, the sub-micromolar range.

The term IC50 denotes the concentration needed to halve the response being measured. Read a high IC50 as a need for much substance.
